Seven compounds from paper PMC7532997, “Cytotoxic Constituents of the Bark of Hypericum roeperianum towards Multidrug-Resistant Cancer Cells” (Evidence-based Complementary and Alternative Medicine : eCAM, 2020) can be followed below.

What all share (assay): Resazurin reduction assay (RRA), 72 h
What all share (format): cell-based
For orientation: Resazurin is reduced to fluorescent resorufin, in cell work by metabolically active cells.

In data set [1] the test system is HCT116 (p53-/-) colon cancer cells. Conditions: IC50 HCT116 (p53-/-) divided by IC50 HCT116 (p53+/+). An excerpt:
(§1) Cell lines used in this work included drug-sensitive and drug-resistant phenotypes of earlier reported origin. They were all provided by Prof. Dr. Thomas Efferth from his cell lines collection; they have being used in cytotoxicity screening by our team for a decade. These include two hematological cancer cell lines, namely, the drug-sensitive CCRF-CEM leukemia cell line and its multidrug-resistant P-gp-over-expressing subline CEM/ADR5000 cells and […] carcinoma cell lines, namely, U87.MG glioblastoma cell line and its EGFR-transfected U87.MGΔEGFR subline, HCT116 (p53^+/+) colon cancer cell line and its knockout clone HCT116 (p53^−/^−), and MDA-MB-231-pcDNA3 breast cancer cell line and its BCRP-transfected multidrug-resistant MDA-MB-231-BCRP clone 23 cell line, as well as the normal AML12 hepatocytes, used to compare with HepG2 liver cancer cells.
(§2) The RRA was applied to evaluate the cytotoxicity of botanicals, the isolated phytochemicals (1–5, 7, and 8), and doxorubicin on the cell growth as reported earlier. Cells treated with various samples at different concentrations were incubated for 72 h in humidified 5% CO2 atmosphere at 37°C. Cells were further coloured with resazurin and incubated for 1–2 h; the fluorescence was further measured with an Infinite M2000 Pro™ plate reader (Tecan, Crailsheim, Germany) at 544 nm as the excitation wavelength and 590 nm as the emission wavelength. The IC50 values represented the concentrations of the sample required to inhibit 50% of cell proliferation and were calculated from a calibration curve by linear regression using Microsoft Excel 2007 [29].

The subject of data set [2] is MDA-MB-231-BCRP breast cancer cells. Conditions: IC50 MDA-MB-231-BCRP divided by IC50 MDA-MB-231-pcDNA.
Excerpt: as §1, §2

The subject of data set [3] is U87MG.ΔEGFR glioblastoma cells. Conditions: IC50 U87MG.ΔEGFR divided by IC50 U87MG.
Excerpt: as §1, §2

SMILES strings stand for the structures.

`O=c1c2ccc(O)c(O)c2oc2cc(O)cc(O)c12` [Compound 5, 1,3,5,6-tetrahydroxyxanthone]: the Degree of resistance in data set [1] worked out at 1.49; in data set [2] it was 0.84; in data set [3], 0.96.
For `COc1cc(C2Oc3ccc4c(=O)c5ccccc5oc4c3OC2CO)cc(OC)c1O` (stereo not shown) [Compound 8, 3′-hydroxymethyl-2′-(4″-hydroxy-3″,5″-dimethoxyphenyl)-5′,6′:5,6-(xanthone)-1′,4′-dioxane], the Degree of resistance in data set [1] is recorded as greater than 2.26; in data set [2], 0.83; in data set [3], 0.86.
`C[C@H]1C(=O)CC[C@@H]2[C@]1(C)CC[C@H]1[C@@]2(C)CC[C@@]2(C(=O)O)C3CC(C)(C)CC[C@]3(C)CC[C@]12C` (stereo partly shown) [Compound 1, trichadonic acid]: the Degree of resistance in data set [1] was 2.55; in data set [2], 0.91; in data set [3] it was 0.91.
For the compound `COc1cc(C2Oc3ccc4c(=O)c5c(O)cc(O)cc5oc4c3OC2CO)cc(OC)c1O` (stereo not shown) [Compound 7, 3′-hydroxymethyl-2′-(4″-hydroxy-3″,5″-dimethoxyphenyl)-5′,6′:5,6-(6,8-dihydroxyxanthone)-1′,4′-dioxane], the Degree of resistance in data set [2] stood at 1.07; in data set [3] it was 0.43.
Consider `COc1cccc2c1C(=O)c1c(O)c3c(c(O)c1C2=O)C[C@@](O)(C(=O)CO)C[C@@H]3O[C@H]1C[C@H](N)[C@H](O)[C@H](C)O1` [Doxorubicin, reference compound], for which the results for the Degree of resistance in data set [1], in data set [2] and in data set [3] were 3.73, 6.14 and 3.79, respectively.
The like results for `COc1cccc2c(=O)c3cc(O)ccc3oc12` [Compound 3, 2-hydroxy-5-methoxyxanthone] were, in that order, greater than 3.54, 0.77 and 0.60.
For `O=c1c2cc(O)c(O)cc2oc2cc(O)cc(O)c12` [Compound 4, 1,3,6,7-tetrahydroxyxanthone], the figures for the Degree of resistance in data set [2] and in data set [3] were less than 0.13 and 0.29, respectively.
